According to article PMC9605963:
Where two headings read alike, the source gives them in different places. No constants are given. Whether binding was seen depends on the method and setting. In cells and extracts the contact can be indirect. Some binding calls cover weakened binding; strength is not graded here.

Chains of the proteins cited; added tags and fusions are not shown. Lines headed by an entry give the natural chain unless they say otherwise; changes in a name come on top.
UniProt Q86U44: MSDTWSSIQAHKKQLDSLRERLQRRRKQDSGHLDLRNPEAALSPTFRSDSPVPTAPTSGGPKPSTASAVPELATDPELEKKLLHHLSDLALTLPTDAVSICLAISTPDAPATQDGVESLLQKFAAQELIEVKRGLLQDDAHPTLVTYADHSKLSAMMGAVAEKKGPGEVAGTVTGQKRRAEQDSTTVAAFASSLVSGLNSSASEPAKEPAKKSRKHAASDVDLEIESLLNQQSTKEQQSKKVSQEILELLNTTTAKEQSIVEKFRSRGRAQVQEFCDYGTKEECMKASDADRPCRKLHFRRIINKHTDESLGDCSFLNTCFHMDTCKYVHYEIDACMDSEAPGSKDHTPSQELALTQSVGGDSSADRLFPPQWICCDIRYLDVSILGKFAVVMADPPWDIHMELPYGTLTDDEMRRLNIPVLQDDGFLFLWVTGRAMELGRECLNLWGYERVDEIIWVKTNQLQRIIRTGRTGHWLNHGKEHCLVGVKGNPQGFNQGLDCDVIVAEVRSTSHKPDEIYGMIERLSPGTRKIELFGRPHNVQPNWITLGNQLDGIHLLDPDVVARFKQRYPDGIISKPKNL
UniProt P52294: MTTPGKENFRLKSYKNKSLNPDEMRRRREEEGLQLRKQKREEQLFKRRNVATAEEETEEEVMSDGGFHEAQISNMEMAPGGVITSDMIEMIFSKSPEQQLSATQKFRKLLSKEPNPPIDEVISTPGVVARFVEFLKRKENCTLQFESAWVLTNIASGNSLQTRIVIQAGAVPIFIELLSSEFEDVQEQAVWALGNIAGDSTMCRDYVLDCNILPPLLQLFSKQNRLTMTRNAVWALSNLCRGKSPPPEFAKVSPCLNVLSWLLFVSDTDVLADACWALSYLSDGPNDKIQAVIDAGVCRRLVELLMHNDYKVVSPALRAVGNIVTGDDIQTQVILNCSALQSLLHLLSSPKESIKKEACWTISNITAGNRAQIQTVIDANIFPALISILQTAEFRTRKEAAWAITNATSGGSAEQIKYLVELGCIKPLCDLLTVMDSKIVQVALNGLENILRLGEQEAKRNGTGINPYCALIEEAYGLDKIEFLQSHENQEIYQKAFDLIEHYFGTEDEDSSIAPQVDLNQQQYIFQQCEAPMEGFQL
UniProt P55884: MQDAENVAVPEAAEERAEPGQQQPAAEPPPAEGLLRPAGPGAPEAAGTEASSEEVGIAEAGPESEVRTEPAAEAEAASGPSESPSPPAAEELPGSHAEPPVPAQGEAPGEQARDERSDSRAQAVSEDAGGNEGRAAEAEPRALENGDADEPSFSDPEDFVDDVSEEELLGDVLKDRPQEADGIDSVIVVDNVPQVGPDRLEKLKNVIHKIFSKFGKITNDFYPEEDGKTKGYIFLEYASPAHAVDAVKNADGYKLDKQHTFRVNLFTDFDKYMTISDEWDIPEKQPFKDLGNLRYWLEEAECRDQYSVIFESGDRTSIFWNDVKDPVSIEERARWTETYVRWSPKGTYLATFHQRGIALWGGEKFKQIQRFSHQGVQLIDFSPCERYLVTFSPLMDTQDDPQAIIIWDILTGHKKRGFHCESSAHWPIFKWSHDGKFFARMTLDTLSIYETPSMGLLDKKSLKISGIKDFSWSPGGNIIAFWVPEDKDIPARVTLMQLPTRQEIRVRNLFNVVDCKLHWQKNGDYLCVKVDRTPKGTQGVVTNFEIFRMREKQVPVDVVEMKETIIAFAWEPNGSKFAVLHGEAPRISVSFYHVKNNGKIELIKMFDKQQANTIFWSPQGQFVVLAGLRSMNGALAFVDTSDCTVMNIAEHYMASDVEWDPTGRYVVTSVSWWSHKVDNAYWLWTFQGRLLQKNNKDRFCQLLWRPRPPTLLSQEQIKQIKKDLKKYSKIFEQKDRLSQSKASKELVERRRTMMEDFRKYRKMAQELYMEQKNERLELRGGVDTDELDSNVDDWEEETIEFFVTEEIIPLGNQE
UniProt O15372: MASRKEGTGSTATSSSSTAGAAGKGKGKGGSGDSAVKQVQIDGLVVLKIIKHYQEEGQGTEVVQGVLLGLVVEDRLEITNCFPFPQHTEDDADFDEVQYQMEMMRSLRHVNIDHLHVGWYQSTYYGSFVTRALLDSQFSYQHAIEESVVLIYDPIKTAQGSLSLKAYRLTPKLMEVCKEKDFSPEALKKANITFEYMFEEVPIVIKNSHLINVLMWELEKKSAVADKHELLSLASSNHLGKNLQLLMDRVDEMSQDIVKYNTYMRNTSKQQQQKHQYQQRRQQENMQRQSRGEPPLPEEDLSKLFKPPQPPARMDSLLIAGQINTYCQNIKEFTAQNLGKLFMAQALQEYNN

Experiments:
[1] = target: recombinant GST-METTL3 K177Q (UniProt Q86U44); assay: pull-down; around 10 μg recombinant GST-METTL3 mixed with lysates of HEK293T cells transfected with HA-importin α5, 4 °C for 2 h; washed 5 times with NETN buffer; proteins retained on sepharose blotted; only the target purified
[2] = target: recombinant GST-METTL3 K177R (UniProt Q86U44); assay: as above
[3] = target: recombinant GST-METTL3 (wild type) (UniProt Q86U44); assay: as above
[4] = target: Myc-METTL3 K177R (acetylation-deficient), ectopic in HEK293T cells (UniProt Q86U44); assay: co-IP; lysates of HEK293T cells transfected with the indicated constructs; lysis buffer 50 mM Tris pH 7.4, 150 mM NaCl, 1% Triton with 5 mM NAM; washed five times with NETN buffer; immunoblot
[5] = target: Myc-METTL3 K177Q (acetylation-mimetic), ectopic in HEK293T cells (UniProt Q86U44); assay: as above
[6] = target: Myc-METTL3 (wild type), ectopic in HEK293T cells (UniProt Q86U44); assay: as above
[7] = target: Myc-METTL3^K177Q in METTL3 reconstituting MDA-MB-231 cells (UniProt Q86U44); assay: co-IP; lysates of METTL3 reconstituting MDA-MB-231 cells treated with RNase A; immunoprecipitation of Myc-METTL3; immunoblot of endogenous partners
[8] = target: endogenous METTL3 (human (endogenous in MDA-MB-231)) (UniProt Q86U44); assay: co-IP; endogenous proteins, lysates of MDA-MB-231 cells without ASP/NAM; IP and IB
[9] = target: endogenous METTL3 (human (endogenous in MDA-MB-231)) (UniProt Q86U44); assay: condition: only cells treated with 5 mM ASP and 3 mM NAM for 24 h; co-IP; endogenous proteins, lysates of MDA-MB-231 cells treated with 5 mM ASP and 3 mM NAM for 24 h; IP and IB
[10] = target: Myc-METTL3 (wild type), ectopic in HEK293T cells (UniProt Q86U44); assay: co-IP; lysates of HEK293T cells transfected with the indicated constructs; lysis buffer 50 mM Tris pH 7.4, 150 mM NaCl, 1% Triton with 5 mM NAM; washed five times with NETN buffer; immunoblot; remark: listed apart in the source

## HA-importin α5 (from UniProt P52294 1-538)
[1]
  binding: binds weakly
[2]
  binding: binds
[3]
  binding: binds
[4]
  binding: binds
[5]
  binding: binds weakly
[6]
  binding: binds

## endogenous eIF3b (from UniProt P55884 1-814)
[7]
  binding: binds

## endogenous eIF3h (from UniProt O15372 1-352)
[7]
  binding: binds

## endogenous importin α5 (from UniProt P52294 1-538)
[8]
  binding: binds
[9]
  binding: no binding

B1: endogenous SIRT2 (enzyme, UniProt Q8IXJ6 1-389)
chain: MAEPDPSHPLETQAGKVQEAQDSDSDSEGGAAGGEADMDFLRNLFSQTLSLGSQKERLLDELTLEGVARYMQSERCRRVICLVGAGISTSAGIPDFRSPSTGLYDNLEKYHLPYPEAIFEISYFKKHPEPFFALAKELYPGQFKPTICHYFMRLLKDKGLLLRCYTQNIDTLERIAGLEQEDLVEAHGTFYTSHCVSASCRHEYPLSWMKEKIFSEVTPKCEDCQSLVKPDIVFFGESLPARFFSCMQSDFLKVDLLLVMGTSLQVQPFASLISKAPLSTPRLLINKEKAGQSDPFLGMIMGLGGGMDFDSKKAYRDVAWLGECDQGCLALAELLGWKKELEDLVRREHASIDAQSGAGVPNPSTSASPKKSPPPAKDEARTTEREKPQ
[10]
  binding: no binding
